Series [1] is described as follows: Fluorescence quantum yield against TPP standard. Type of series: physicochemical. The note with it: in methanol, excitation 600 nm.
For series [2] the following is noted: cited from earlier work.
Series [3] is described as follows: Absorption and emission spectra of parent dyes in methanol. Type of series: physicochemical. The note with it: for λmax em: excited at 600 nm.
A short description of series [4]: Excited state fluorescence lifetime of dyes in methanol. Type of series: physicochemical.

Read-outs that look alike come from different tables or passages of the source.

As for `CCCCCCOc1ccc2c(c1)C(C)(C)C(=CC=CC=CC1=[N+](CCCOC(C)=O)c3ccc(OCCCCCC)cc3C1(C)C)N2CCCOC(C)=O.[I-]` [4-hex, 1,1′-bis(3-acetoxypropyl)-5,5′-bis(n-hexyloxy)-3,3,3′,3′-tetramethyldicarboindocyanine iodide], in series [1], the “ΦF (fluorescence quantum yield)” value is “identical”.

Consider `CC(=O)OCCCN1C(=CC=CC=CC2=[N+](CCCOC(C)=O)c3ccc(C(C)(C)C)cc3C2(C)C)C(C)(C)c2cc(C(C)(C)C)ccc21.[I-]` [4-tBu, 1,1′-bis(3-acetoxypropyl)-5,5′-bis(tert-butyl)-3,3,3′,3′-tetramethyldicarboindocyanine iodide], for which, in series [1], the “ΦF (fluorescence quantum yield)” value is listed as “identical”.

On to `C1=Cc2nc1c(-c1ccccc1)c1ccc([nH]1)c(-c1ccccc1)c1nc(c(-c3ccccc3)c3ccc([nH]3)c2-c2ccccc2)C=C1` [5,10,15,20-tetraphenylporphyrin], for which the ΦF of standard in series [2] (in toluene) is 0.07.

With `COc1ccc(C(OCCCN2C(=CC=CC=CC3=[N+](CCCO)c4ccc(Cl)cc4C3(C)C)C(C)(C)c3cc(Cl)ccc32)(c2ccccc2)c2ccccc2)cc1.[I-]` [Cy5-Cl, 5,5′-dichloro-1-(3-hydroxypropyl)-1′-(3-monomethoxytritylpropyl)-tetramethyl-dicarboindocyanine iodide], in series [3], the “Stokes Shift” value stood at 507 cm⁻¹, the λmax abs was determined as 648 nm and the λmax em is reported as 670 nm. Besides, in series [1], the “ΦF (fluorescence quantum yield)” value came to 0.27. The “τ (excited state fluorescence lifetime)” value in series [4] worked out at 1.11 ns.

As to `COCCOCCOCCOc1ccc2c(c1)C(C)(C)C(=CC=CC=CC1=[N+](CCCO)c3ccc(OCCOCCOCCOC)cc3C1(C)C)N2CCCOC(c1ccccc1)(c1ccccc1)c1ccc(OC)cc1.[I-]` [Cy5-Peg, 1-(3-hydroxypropyl)-1′-(3-monomethoxytritylpropyl)-5,5′-bis{2-[2-(2-methoxyethoxy)ethoxy]ethoxy}-3,3,3′,3′-tetramethyl-dicarboindocyanine iodide], in series [3], the “Stokes Shift” value was 540 cm⁻¹, the λmax abs is on record as 668 nm and the λmax em is reported as 693 nm. Further, in series [1], the “ΦF (fluorescence quantum yield)” value was determined as 0.07. Further, in series [4], the “τ (excited state fluorescence lifetime)” value is 0.44 ns.

Consider `CCCCCCOc1ccc2c(c1)C(C)(C)C(=CC=CC=CC1=[N+](CCCO)c3ccc(OCCCCCC)cc3C1(C)C)N2CCCOC(c1ccccc1)(c1ccccc1)c1ccc(OC)cc1.[I-]` [Cy5-hex, 1-(3-hydroxypropyl)-1′-(3-monomethoxytritylpropyl)-5,5′-bis(n-hexyloxy)-3,3,3′,3′-tetramethyl-dicarboindocyanine iodide], for which, in series [3], the “Stokes Shift” value stood at 619 cm⁻¹, the λmax abs was determined as 670 nm and the λmax em is reported as 699 nm. Besides, in series [1], the “ΦF (fluorescence quantum yield)” value worked out at 0.07. The “τ (excited state fluorescence lifetime)” value in series [4] was 0.42 ns.

Take `COc1ccc(C(OCCCN2C(=CC=CC=CC3=[N+](CCCO)c4ccc(C(C)(C)C)cc4C3(C)C)C(C)(C)c3cc(C(C)(C)C)ccc32)(c2ccccc2)c2ccccc2)cc1.[I-]` [Cy5-tBu, 1-(3-hydroxypropyl)-1′-(3-monomethoxytritylpropyl)-5,5′-bis(tert-butyl)-3,3,3′,3′-tetramethyl-dicarboindocyanine iodide]: in series [3], the “Stokes Shift” value was determined as 541 cm⁻¹, the λmax abs is given as 654 nm and the λmax em is listed as 678 nm. In addition, the “ΦF (fluorescence quantum yield)” value in series [1] is on record as 0.21. For the same compound, the “τ (excited state fluorescence lifetime)” value in series [4] is 0.94 ns.

As for oxazine 720 perchlorate, in series [2] (in MeOH), the ΦF of standard is on record as 0.63.

The values above are taken from US12595281B2, “Indodicarbocyanine phosphoramidites with bathochromically shifted absorption and emission, and tunable hydrophobicity” (The Government of the United States of America, as …, priority 2022, dated 2026).
